Laboratory results as given in publication PMC7819943, “Rice protein-binding microarrays: a tool to detect cis-acting elements near promoter regions in rice”.
The list shows a part of the results.

Chains of the proteins cited; added tags and fusions are not shown.
UniProt Q0JBA9, entry or part of it: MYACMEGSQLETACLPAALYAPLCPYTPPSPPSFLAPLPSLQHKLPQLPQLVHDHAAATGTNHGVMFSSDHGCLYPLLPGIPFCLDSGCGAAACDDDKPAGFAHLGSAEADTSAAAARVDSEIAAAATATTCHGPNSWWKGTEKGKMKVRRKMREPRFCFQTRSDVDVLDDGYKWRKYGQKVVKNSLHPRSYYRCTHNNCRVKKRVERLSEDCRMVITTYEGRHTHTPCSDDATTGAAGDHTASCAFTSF

Target: OsWRKY34 (Oryza sativa, UniProt Q0JBA9 1-250)
Assay: protein-binding microarray (RPBM); PBS, 2% BSA, 51.3 ng/ul salmon testes DNA, 50 uM zinc acetate, 200 nM TF, 25 C, 1 h; high values mean tight binding
Conditions: protein: recombinant; tags: N-terminal polyhistidine and DsRed monomer fusion (pET32a); label: CyDye5-dUTP incorporated in the synthesized complementary strand; 3' TTTTT single-stranded linker to array surface; dsDNA, one strand shown
In short: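 Binding signal is defined as the fluorescence intensity of each feature in arbitrary units, read on an Axon 4000B scanner. Transcription factors with N-terminal polyhistidine and DsRed fusions came from E. coli BL21-CodonPlus and were purified on Ni–NTA. They were incubated at 200 nM for 1 h at 25 °C on a custom Agilent array that had been made double-stranded with Cy5-dUTP, with 50 µM zinc acetate present, and the array was washed.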

How did the binding signal turn out when “GCTGCTGCATCCAGTCAATAAGTCGTCTGTCCATTATCCTCGGAGTCACCTAGTGCAG” was run?
The binding signal was 10900 fluorescence intensity (a.u.).

How did the binding signal turn out when “AATTGTCTCTAAAATTAATGTCTCTTTGTGTCATCTTGTTCGGAGTCACCTAGTGCAG” was run?
The binding signal was 9820 fluorescence intensity (a.u.).

With “GTTTAGTGTTGGTCATCCGTTTAATTATCCTCCAACTCACCGGAGTCACCTAGTGCAG” as the sequence, how does the binding signal read?
The binding signal was 10100 fluorescence intensity (a.u.).

For “CGAGGGAGATGGGACGGCGATGGTGACAGGGATGGAGGGACGGAGTCACCTAGTGCAG”, which binding signal is on record?
Its binding signal is 8230 fluorescence intensity (a.u.).

For “TTGACATCCTACGTTTGTGTTCCTCGTCACTCCACTATCGCGGAGTCACCTAGTGCAG”, which binding signal is on record?
Its binding signal is 8040 fluorescence intensity (a.u.).

With “AATTCTCTTCTTTCTGACTGTCATGAGACCTATTTTGTATCGGAGTCACCTAGTGCAG” as the sequence, how does the binding signal read?
Its binding signal is 9560 fluorescence intensity (a.u.).

How did the binding signal turn out when “TCCATTGACACCGGCACACGCACACGCACACCCGCACCGCCGGAGTCACCTAGTGCAG” was run?
The binding signal was 8960 fluorescence intensity (a.u.).

For “GATGCTGTTTCGTATATTCGGTGCTTCCCTTTTTATTTTTCGGAGTCACCTAGTGCAG”, which binding signal is on record?
Its binding signal is 10200 fluorescence intensity (a.u.).

Which binding signal does the source give for “TAACGTTTTCTTTTAAGTTGTGCGCTGTACTATTATTTTTCGGAGTCACCTAGTGCAG” here?
The binding signal was 9710 fluorescence intensity (a.u.).

How did the binding signal turn out when “CACATACACACCACACATACTTTTGCAGAGCAGCAACATGCGGAGTCACCTAGTGCAG” was run?
The binding signal was 8370 fluorescence intensity (a.u.).

How did the binding signal turn out when “TCACTTCGCACATTAACTCTCTCTCTCTCTCCATTTTCTTCGGAGTCACCTAGTGCAG” was run?
Its binding signal is 11300 fluorescence intensity (a.u.).

For “TTCTCTCTCCCTGCCCTCAACCACCACCACCTCCTCGATCCGGAGTCACCTAGTGCAG”, which binding signal is on record?
The binding signal was 8180 fluorescence intensity (a.u.).

With “ATATATGAGGGAGCCAATGTAGACTTATTCTGGCTCTCACCGGAGTCACCTAGTGCAG” as the sequence, how does the binding signal read?
Its binding signal is 9120 fluorescence intensity (a.u.).

Which binding signal does the source give for “CCTACCACCACACGTACACCTCTCGTTCTTCTCGACTTCTCGGAGTCACCTAGTGCAG” here?
The binding signal was 15900 fluorescence intensity (a.u.).

“GGCGGAGGAGTTCAGGTTAGGGTTTTAAATCTCCAGCTATCGGAGTCACCTAGTGCAG” was tested. Which binding signal did it give?
The binding signal was 8720 fluorescence intensity (a.u.).

How did the binding signal turn out when “GGGAGAATGGTGGTGGTTGTTGGGCGGCGGCGGTAGATAGCGGAGTCACCTAGTGCAG” was run?
The binding signal was 9450 fluorescence intensity (a.u.).

With “CACCGGCACCGCATCGCTTCACTCCGCTCTCACAGTCTCACGGAGTCACCTAGTGCAG” as the sequence, how does the binding signal read?
The binding signal was 13400 fluorescence intensity (a.u.).

“CAGTACACCACACTGTCCACACACCACACCAACTAGTCCACGGAGTCACCTAGTGCAG” was tested. Which binding signal did it give?
Its binding signal is 9370 fluorescence intensity (a.u.).

How did the binding signal turn out when “CCCCACCTTTGTACATCTCCTTCCCTTTTTTTTCTACCCTCGGAGTCACCTAGTGCAG” was run?
The binding signal was 8520 fluorescence intensity (a.u.).

With “GTTTCATCTTCTTGTGGGCTTTTCTGGTGAACTCAATTCACGGAGTCACCTAGTGCAG” as the sequence, how does the binding signal read?
The binding signal was 8250 fluorescence intensity (a.u.).

How did the binding signal turn out when “AGTTTTGCCTGAGCCTATTTTTCATTGATTGCATGTAATACGGAGTCACCTAGTGCAG” was run?
Its binding signal is 8540 fluorescence intensity (a.u.).

Which binding signal does the source give for “TTTTTTGCTCTATCTGATCCAGTTTGTGCTTGATTTTCTTCGGAGTCACCTAGTGCAG” here?
Its binding signal is 8840 fluorescence intensity (a.u.).

For “GCTTTGTTCTGATTCCTTCACAGTTATTTGATATTTTCCTCGGAGTCACCTAGTGCAG”, which binding signal is on record?
Its binding signal is 8710 fluorescence intensity (a.u.).

“AACCAGCTAGCTGATCGAGTTCGTTGTTTACCATCCTATTCGGAGTCACCTAGTGCAG” was tested. Which binding signal did it give?
The binding signal was 8510 fluorescence intensity (a.u.).

For “AGCTGAGAGCCAACCACCACGCTGCTGCTCCGCCGCTCTTCGGAGTCACCTAGTGCAG”, which binding signal is on record?
Its binding signal is 8480 fluorescence intensity (a.u.).

How did the binding signal turn out when “CCTTCTTTCCCTTTTCCCATCTGGCAAGATTTTTCTTATTCGGAGTCACCTAGTGCAG” was run?
Its binding signal is 9610 fluorescence intensity (a.u.).

With “AACAGACGCAGACAGACACACACGGTCATCACACACGCGCCGGAGTCACCTAGTGCAG” as the sequence, how does the binding signal read?
Its binding signal is 9030 fluorescence intensity (a.u.).

With “ATGGACATAGATAGATCACGGTTACCTTTGCAAATAGCTTCGGAGTCACCTAGTGCAG” as the sequence, how does the binding signal read?
Its binding signal is 8410 fluorescence intensity (a.u.).

“TCTGACCGCTGGAAATTCAATTTGTTTTGTTCGTTACTCTCGGAGTCACCTAGTGCAG” was tested. Which binding signal did it give?
Its binding signal is 11400 fluorescence intensity (a.u.).

“ACCGGGTTGGAATATATTACACCTTCTTCATTTTGTTCATCGGAGTCACCTAGTGCAG” was tested. Which binding signal did it give?
Its binding signal is 8830 fluorescence intensity (a.u.).

With “GGTGGTGACGGGGTACTCATCCATGTCGACGTAGTTCTTGCGGAGTCACCTAGTGCAG” as the sequence, how does the binding signal read?
The binding signal was 9650 fluorescence intensity (a.u.).

How did the binding signal turn out when “ATATCTTCTTGTCATTTTTTCCACACTTCCTTTTGATTTTCGGAGTCACCTAGTGCAG” was run?
Its binding signal is 12400 fluorescence intensity (a.u.).

For “GACCCAACGACCCCGCCATTGCTCACCTCCACCTCCACCTCGGAGTCACCTAGTGCAG”, which binding signal is on record?
Its binding signal is 8800 fluorescence intensity (a.u.).

With “GGAAGAGCTCTGTGCATTCTCTTATCAGTTTACTGTTGCACGGAGTCACCTAGTGCAG” as the sequence, how does the binding signal read?
Its binding signal is 8350 fluorescence intensity (a.u.).

With “CGCGTCTCGATCTCGGCGGTGCCTTCCATCCGTCCGCCCGCGGAGTCACCTAGTGCAG” as the sequence, how does the binding signal read?
Its binding signal is 8220 fluorescence intensity (a.u.).

For “GGAAGTAGCTATCATTTATTTCATTGTGACTTGATTCGTCCGGAGTCACCTAGTGCAG”, which binding signal is on record?
The binding signal was 9560 fluorescence intensity (a.u.).

For “CTTGTGCTGGCAGCAAAGTGCCCTCGTCCTGCCGAAGCTTCGGAGTCACCTAGTGCAG”, which binding signal is on record?
The binding signal was 9300 fluorescence intensity (a.u.).

How did the binding signal turn out when “ATGCATTCACAGCTACTAGCTACTATACAGTATACACACACGGAGTCACCTAGTGCAG” was run?
The binding signal was 8560 fluorescence intensity (a.u.).

“ATCTGTGACGGGCTATAGTTTGACTGGTCGTCTGGGTCAACGGAGTCACCTAGTGCAG” was tested. Which binding signal did it give?
The binding signal was 8840 fluorescence intensity (a.u.).

Which binding signal does the source give for “CATGAACCAATCTCCATTAGGCTTATTTCTCTTTCTTCATCGGAGTCACCTAGTGCAG” here?
Its binding signal is 11500 fluorescence intensity (a.u.).

“TTTCCCTTTGTTTTCTCTTTTCTTTTGGTACTTTTGTGTACGGAGTCACCTAGTGCAG” was tested. Which binding signal did it give?
The binding signal was 8280 fluorescence intensity (a.u.).

With “TCTATACATTTCCCGATCCGCCCCTGCAGCAAACCAAGACCGGAGTCACCTAGTGCAG” as the sequence, how does the binding signal read?
The binding signal was 10400 fluorescence intensity (a.u.).

For “TTAATTACTCATTCCTCCCCGCAGTGCCATGTTCTTGAGTCGGAGTCACCTAGTGCAG”, which binding signal is on record?
The binding signal was 8780 fluorescence intensity (a.u.).

For “CGTAGTAGTGGATGGTAACATATTGGGAGGATTGGTTCAGCGGAGTCACCTAGTGCAG”, which binding signal is on record?
Its binding signal is 8240 fluorescence intensity (a.u.).

“CATCTCTAGCTAGCTCTTCTGGTGTAGGTGCTGTTACTATCGGAGTCACCTAGTGCAG” was tested. Which binding signal did it give?
The binding signal was 10100 fluorescence intensity (a.u.).

With “CTACCCCATTGTTAACGAGTTGATCGCAGTCGCCATTACCCGGAGTCACCTAGTGCAG” as the sequence, how does the binding signal read?
Its binding signal is 11200 fluorescence intensity (a.u.).

Which binding signal does the source give for “GAACGAGTTTCCTACTTTAGCTCCGCGTTCCTCACTTGCTCGGAGTCACCTAGTGCAG” here?
The binding signal was 8170 fluorescence intensity (a.u.).

How did the binding signal turn out when “ATTCTAGTAGTAGTTGTTTATCTTTGTTCTGTTGTTTCTTCGGAGTCACCTAGTGCAG” was run?
The binding signal was 8520 fluorescence intensity (a.u.).

For “CTCTCCGCCGTCTCAACCTCCGCCGATTCTTCCCACCCAGCGGAGTCACCTAGTGCAG”, which binding signal is on record?
Its binding signal is 8190 fluorescence intensity (a.u.).

“GCTTCTGCGGAAAGGGAGGGTGTCGGTGCCAATATCATTACGGAGTCACCTAGTGCAG” was tested. Which binding signal did it give?
The binding signal was 8370 fluorescence intensity (a.u.).

How did the binding signal turn out when “CGTCGAACGTCCACTACCATCCTCTTGTTAATCCCGCAAACGGAGTCACCTAGTGCAG” was run?
The binding signal was 8060 fluorescence intensity (a.u.).

How did the binding signal turn out when “AAGTTCTTGTCTCTCGCGTCACGTTGCTCGCTGCGTCGCTCGGAGTCACCTAGTGCAG” was run?
Its binding signal is 10600 fluorescence intensity (a.u.).

With “AACTAATACCCAACTCTTTTCGTTTATTAATTGTTATAACCGGAGTCACCTAGTGCAG” as the sequence, how does the binding signal read?
The binding signal was 9340 fluorescence intensity (a.u.).

How did the binding signal turn out when “GGCGGACGGCACCGCCGGAGTGGGAGGAGGGAGGGAGGAGCGGAGTCACCTAGTGCAG” was run?
The binding signal was 8820 fluorescence intensity (a.u.).
